Assay results: PubChem BioAssay AID504444 (National Center for Advancing Translational Sciences (NCATS), 2011)
Hit rate of the full screen: of about 360,000 compounds, about 7,500 (2.1%) were called active. Inconclusive means that the source gave no clear call. Such entries were picked first, then a sample of the others. Calls follow the shape of the dose curve; as a rule, active = well fitted inhibition curve with a large enough effect; inconclusive = small, poorly fitted or top-dose-only effect, or effect the other way; inactive = flat fitted curve, though single readings scatter. Where the call is inconclusive, the potency comes from a doubtful curve fit.

assay: Nrf2 qHTS screen for inhibitors; details: A549 ARE-Fluc reporter, luciferase luminescence, 18-24 h; activity change, negative = inhibition: at 46 µM (top of the series); also: nearly all actives have a fitted effect of over 60% in size
How it was run: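 A549 ARE_Fluc cells (5000/well, 5% FBS OPTI-MEM) pre-incubated 2 h, then treated with compounds 18-24 h at 37C/5% CO2 in concentration-response. CellTiter-Fluor viability read first; BugLite luciferase luminescence after 15 min at room temperature gives Nrf2 activity.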
% is scaled to controls: 0 for no effect and ±100 for the full control effect; potency is read from the fitted curve at half-maximal effect.

| SMILES | Potency | activity change, negative = inhibition |
| --- | --- | --- |
| CN1CCN(C(=S)c2ccc(OCC(=O)Nc3cccc(C(F)(F)F)c3)cc2)CC1 | active: 14.6 µM | – |
| c1ccc(-n2nnnc2Sc2ncnc3sc4c(c23)CCCC4)cc1 | inconclusive: 29.1 µM [falling, single point] | – |
| O=C(Nc1ccc2c(c1)N(S(=O)(=O)c1cccs1)CCC2)c1c(F)cccc1F | – | inactive: -11.5% |
| O=C(Nc1ccccc1)c1nsnc1C(=O)Nc1ccccc1 | inconclusive: 3.66 µM [falling, single point] | – |
| C(=C\c1nc(-c2cccnc2)no1)/c1ccccc1 | inconclusive: 16.4 µM [activator, partial curve] | – |
| O=c1cc(C(F)(F)F)nc(SC/C=C/c2ccccc2)[nH]1 | – | inactive: -3.96% |
| CN(C(=O)C1CCC(CNS(=O)(=O)c2cccc3cccnc23)CC1)C1CCCCC1 (configuration not stated) | inconclusive: 13 µM [falling, partial curve, poor fit] | – |
| O=C(NCc1cccnc1)c1cccc(S(=O)(=O)Nc2cccc(Cl)c2)c1 | inconclusive: 16.4 µM [falling, partial curve, poor fit] | – |
| COc1ccc(-c2csc(NC(=O)c3ccccc3NS(=O)(=O)c3ccc(C)cc3)n2)cc1 | active: 16.4 µM | – |
| O=C1C=CC(=O)N1CCNc1ncc(C(F)(F)F)cc1Cl | – | inactive: -12.4% |
| O=C(Nc1ccccc1F)c1cc2nc(C(F)F)cc(C(F)F)n2n1 | inconclusive: 29.1 µM [activator, single point] | – |
| C=Cc1ccc(Cn2c(=O)cc(C)c3c(C)nn(-c4ccccc4)c32)cc1 | inconclusive: 29.1 µM [activator, partial curve, poor fit] | – |
| Cc1ccc(SCC(=O)N2c3ccccc3Sc3ccccc32)cc1 | inconclusive: 29.1 µM [falling, single point] | – |
| COc1cc(OC)cc(-c2cc3nc(C)c(CCC(=O)Nc4ccc(C(C)=O)cc4)c(C)n3n2)c1 | active: 4.11 µM | – |
| COc1ccc(NC(=O)[C@H](C)NC(N)=O)cc1S(=O)(=O)Nc1cc(C)ccc1Br | – | inactive: 1.78% |
| CC(C)c1ccc(CNc2nc(-c3ccco3)nn2C(=O)c2ccc([N+](=O)[O-])cc2)cc1 | inconclusive: 18.4 µM [activator, partial curve] | – |
| Cc1ccc(C(=O)Nc2ccc(Cl)cn2)cc1 | inconclusive: 29.1 µM [falling, single point] | – |
| COCc1cc(C)nc2sc3c(c12)NC(c1ccc(O)c(OC)c1)N(c1ccccc1)C3=O (configuration not stated) | inconclusive: 29.1 µM [activator, single point] | – |
| COc1ccc(OCC(=O)N(Cc2cccs2)c2ccc(OC)cc2)cc1 | inconclusive: 5.8 µM [falling, partial curve, poor fit] | – |
| COC(=O)C1=C(COc2ccc(F)cc2)NC(=O)NC1c1ccc(C)cc1C (configuration not stated) | inconclusive: 29.1 µM [falling, single point] | – |
| c1ccc(-c2nnnn2CCOCCn2nnnc2-c2ccccc2)cc1 | – | inactive: 2.4% |
| CCOC(=O)c1nnn(-c2nc(N3CCCC3)nc(N3CCCC3)n2)c1-c1ccccc1 | – | inactive: -42.6% |
| O=C(Nc1ccc(Cl)c(Cl)c1)OCCNC(=O)c1cccc(Cl)c1 | inconclusive: 32.6 µM [falling, single point] | – |

2 compounds drawn at random from the list so far:

| SMILES | Potency | activity change, negative = inhibition |
| --- | --- | --- |
| O=C(Nc1ccc2c(c1)N(S(=O)(=O)c1cccs1)CCC2)c1c(F)cccc1F | – | inactive: -11.5% |
| O=C(Nc1ccc(Cl)c(Cl)c1)OCCNC(=O)c1cccc(Cl)c1 | inconclusive: 32.6 µM [falling, single point] | – |

The results go on:

| SMILES | Potency | activity change, negative = inhibition |
| --- | --- | --- |
| O=C(Cc1ccc2c(c1)OCCO2)Nc1cc(C(F)(F)F)ccc1N1CCOCC1 | inconclusive: 25.9 µM [falling, single point] | – |
| COC(=O)c1ccccc1NC(=O)Cn1c(=O)n(CCC(=O)NCc2ccccc2OC)c(=O)c2ccccc21 | – | inactive: 2.8% |
| CCCN1C2CCCC1CC(NC(=O)NC1CCCCC1)C2 (configuration not stated) | inconclusive: 23.1 µM [activator, single point] | – |
| COc1ccc(NC2=CC(=O)CC(c3ccccc3)C2)c(OC)c1 (configuration not stated) | inconclusive: 16.4 µM [activator, partial curve] | – |
| CC(=O)CSc1ncnc2sc3c(c12)CCC(C)C3 (configuration not stated) | – | inactive: 16.3% |
| CCn1ccnc1CN(C)C(=O)C1CCC(=O)N(CCc2cccc(F)c2)C1 (configuration not stated) | inconclusive: 2.59 µM [falling, partial curve, poor fit] | – |
| OCCC1CN(Cc2cnc(-c3ccccc3)s2)CCN1CCc1ccccc1 (configuration not stated) | inconclusive: 3.66 µM [falling, partial curve, poor fit] | – |
| Cn1c(=O)c(=O)n(C)c2cc(S(=O)(=O)Nc3ccc(OC(F)(F)F)cc3)ccc21 | inconclusive: 29.1 µM [falling, single point] | – |
| COc1ccc(C2NC(=S)NC3=C2CCc2ccccc23)cc1OC (configuration not stated) | inconclusive: 20.6 µM [falling, single point] | – |
| Cc1c(C(=O)Nc2ccc(Nc3ccccc3)cc2)cccc1[N+](=O)[O-] | inconclusive: 18.4 µM [falling, single point] | – |
| Cc1ccccc1C(=O)NNC(=O)/C=C\C(=O)O | inconclusive: 32.6 µM [activator, partial curve, poor fit] | – |
| COc1ccccc1NC(=O)CSc1nnc(-c2ccccn2)o1 | inconclusive: 25.9 µM [activator, single point] | – |
| COc1cc(-c2nc(-c3ccccn3)no2)cc(OC)c1OC | inconclusive: 3.26 µM [activator, full curve] | – |
| Cc1cc(C)cc(C(=O)NCC(=O)OCC(=O)c2c(N)n(C)c(=O)n(C)c2=O)c1 | – | inactive: 0.377% |
| CCC(=O)c1ccc(OCc2ccc(C(=O)c3ccccc3)cc2)cc1 | active: 7.31 µM | – |
| C[C@]12c3[nH]c4ccc(Cl)cc4c3CCN1C(=O)[C@@H](CC(=O)NCc1cccc(C(F)(F)F)c1)C[C@@H]2C(=O)N1CCCCC1 | – | inactive: -94.6% |
| COc1ccc(C2=CC3=C(Br)C(=O)C(C)(OC(=O)C4CCCC4)C(=O)C3=CO2)cc1 (configuration not stated) | – | inactive: 5.66% |
| COc1ccc(NS(=O)(=O)c2c(F)cc(F)c(Cl)c2F)cc1S(=O)(=O)N1CCCCC1 | inconclusive: 13 µM [falling, partial curve] | – |
| COc1ccccc1NC(=O)CSc1nc(-c2ccc(C)cc2)nc2c1Cc1c(CO)cnc(C)c1O2 | inconclusive: 25.9 µM [activator, single point] | – |
| CC(=O)N1N=C(c2ccco2)CC1c1ccc(C)cc1 (configuration not stated) | inconclusive: 6.51 µM [activator, partial curve, poor fit] | – |
| c1csc(-c2csc3nc(CN4CCOCC4)nc(NCc4ccc5c(c4)OCO5)c23)c1 | inconclusive: 29.1 µM [falling, single point] | – |
| COc1ccc(-c2cn3nc(N4CCCC(C(=O)Nc5ccccc5OC)C4)sc3n2)cc1 (configuration not stated) | inconclusive: 5.8 µM [falling, partial curve, poor fit] | – |
| C/C(=N/NS(=O)(=O)c1ccccc1)c1ccc(Cl)cc1 | inconclusive: 8.2 µM [falling, partial curve, poor fit] | – |

| SMILES | Potency | activity change, negative = inhibition |
| --- | --- | --- |
| O=C(c1ccc2c(c1)OCO2)N(Cc1ccco1)C1(C(=O)NC2CCCCC2)CCCCC1 | active: 18.4 µM | – |
| CCCSC1=NN2CCCC(=O)N=C2S1 | inconclusive: 3.66 µM [activator, single point] | – |
| O=c1c(-c2ccnn2-c2cccc(Cl)c2)cnc2n1CCS2 | inconclusive: 15.8 µM [activator, single point] | – |
| O=C(Nc1cc2c(cc1C(=O)c1cccc(Br)c1)OCCO2)c1ccccc1F | – | inactive: -9.57% |
| COc1cccc(C2=CC(=O)C[C@H](c3ccc(Cl)cc3)C2)c1OC | – | inactive: 8% |
| CCS(=O)(=O)Nc1ccc(C2=NN(C(=O)c3ccco3)C(c3cccs3)C2)cc1 (configuration not stated) | inconclusive: 23.1 µM [falling, partial curve, poor fit] | – |
| CC(C)CC(=O)NC(=S)Nc1sc2c(c1C(N)=O)CCC2 | inconclusive: 4.11 µM [activator, full curve] | – |
| O=C(CSc1ccccc1)Nc1nc2ccccc2[nH]1 | inconclusive: 2.91 µM [activator, full curve, poor fit] | – |
| CCCn1c(=S)[nH]c2cc(C(=O)N3CCCC(C(=O)OCC)C3)ccc2c1=O (configuration not stated) | inconclusive: 29.1 µM [falling, single point] | – |
| CC(=O)c1cc(C(C)=O)c(C)nc1C | inconclusive: 5.17 µM [falling, partial curve, poor fit] | – |
| Cc1ccc(-n2c(=O)c3ccc(C(=O)NCc4ccco4)cc3n(CC(=O)Nc3ccccc3C(F)(F)F)c2=O)cc1 | – | inactive: 8.34% |
| COc1cccc(/C=N/NC(=O)c2ccc(CN3c4cccc5cccc(c45)S3(=O)=O)cc2)c1 | inconclusive: 6.51 µM [falling, full curve] | – |
| CN(C(=O)Cn1cnc2onc(-c3ccc(F)cc3)c2c1=O)c1ccccc1Cl | inconclusive: 0.0461 µM [falling, full curve, poor fit] | – |
| O=C(O)c1cccc(N=NN2CCCCCC2)c1 | inconclusive: 4.11 µM [activator, full curve] | – |
| Cc1cc(C)cc(-n2c(C)cc(C(=O)C(=O)Nc3nnc(C)s3)c2C)c1 | – | inactive: -10.8% |
| Cc1noc(C)c1CSCC(=O)Nc1cccc(C(F)(F)F)c1 | inconclusive: 6.51 µM [activator, single point] | – |
| CCOC(=O)c1c(NC(=O)C2=C(C)NC(=S)NC2c2ccccc2C(F)(F)F)sc(C)c1C (configuration not stated) | inconclusive: 23.1 µM [falling, single point] | – |
| CCOC(=O)c1sc(N)c(C#N)c1CSc1nnc(C2CC2)n1N | – | inactive: 6.85% |
| O=S(=O)(c1cccc(F)c1)N1CCc2sccc2C1c1ccc(OC(F)(F)F)cc1 (configuration not stated) | inconclusive: 29.1 µM [falling, single point] | – |
| Cc1cccc(N2CCN(c3ccc(C(=O)O)cc3NC(=O)c3cccc(Cl)c3)CC2C)c1 (configuration not stated) | – | inactive: -8.53% |
| COCCNC(=O)c1cccc2c1-c1ccccc1C2=O | inconclusive: 0.146 µM [activator, full curve, poor fit] | – |

One compound at a time, as listed above.
`O=C(Nc1ccccc1)c1nsnc1C(=O)Nc1ccccc1` in the list: Potency: inconclusive: 3.66 µM [falling, single point]
`COc1ccc(-c2cn3nc(N4CCCC(C(=O)Nc5ccccc5OC)C4)sc3n2)cc1` (configuration not stated) in the list: Potency: inconclusive: 5.8 µM [falling, partial curve, poor fit]
`c1csc(-c2csc3nc(CN4CCOCC4)nc(NCc4ccc5c(c4)OCO5)c23)c1` in the list: Potency: inconclusive: 29.1 µM [falling, single point]
